Measurements reported in patent publication US20170298359, “OLIGONUCLEOTIDE TARGETED TO THE A20-THREE PRIME UNTRANSLATED REGION” (Max-Delbrück-Centrum für Molekulare Medizin in …, published 2017).

Columns and labels:
[1] = biological target: T1, RC3H1-N1 (Roquin-1, RING and ROQ domains) (Homo sapiens) (UniProt Q5TC82); experiment: EMSA; details: same buffer, bound poorly, purified recombinant protein, label: 5'-32P
T1 sequence (looked up): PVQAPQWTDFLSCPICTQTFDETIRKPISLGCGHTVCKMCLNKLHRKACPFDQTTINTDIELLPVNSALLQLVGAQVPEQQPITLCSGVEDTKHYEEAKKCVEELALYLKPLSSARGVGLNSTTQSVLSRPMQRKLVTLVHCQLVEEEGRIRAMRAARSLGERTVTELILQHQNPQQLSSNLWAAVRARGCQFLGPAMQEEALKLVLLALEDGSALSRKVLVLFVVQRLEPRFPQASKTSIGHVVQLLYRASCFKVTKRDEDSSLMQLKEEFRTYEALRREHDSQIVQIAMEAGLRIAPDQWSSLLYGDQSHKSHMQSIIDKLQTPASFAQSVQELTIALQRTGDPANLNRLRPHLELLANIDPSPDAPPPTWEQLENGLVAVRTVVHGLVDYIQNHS

[2] = biological target: T2, RC3H1 (Roquin-1) full length (Homo sapiens) (UniProt Q5TC82); experiment: binding assay; details: 4SU or 6SG metabolically incorporated; PAR-CLIP in HEK293; T to C transitions in upstream AU-rich sequence and loop; protein in cells; protein details: FLAG/HA, stable inducible in HEK293 Flp-In T-REx
T2 sequence (looked up, limits assumed): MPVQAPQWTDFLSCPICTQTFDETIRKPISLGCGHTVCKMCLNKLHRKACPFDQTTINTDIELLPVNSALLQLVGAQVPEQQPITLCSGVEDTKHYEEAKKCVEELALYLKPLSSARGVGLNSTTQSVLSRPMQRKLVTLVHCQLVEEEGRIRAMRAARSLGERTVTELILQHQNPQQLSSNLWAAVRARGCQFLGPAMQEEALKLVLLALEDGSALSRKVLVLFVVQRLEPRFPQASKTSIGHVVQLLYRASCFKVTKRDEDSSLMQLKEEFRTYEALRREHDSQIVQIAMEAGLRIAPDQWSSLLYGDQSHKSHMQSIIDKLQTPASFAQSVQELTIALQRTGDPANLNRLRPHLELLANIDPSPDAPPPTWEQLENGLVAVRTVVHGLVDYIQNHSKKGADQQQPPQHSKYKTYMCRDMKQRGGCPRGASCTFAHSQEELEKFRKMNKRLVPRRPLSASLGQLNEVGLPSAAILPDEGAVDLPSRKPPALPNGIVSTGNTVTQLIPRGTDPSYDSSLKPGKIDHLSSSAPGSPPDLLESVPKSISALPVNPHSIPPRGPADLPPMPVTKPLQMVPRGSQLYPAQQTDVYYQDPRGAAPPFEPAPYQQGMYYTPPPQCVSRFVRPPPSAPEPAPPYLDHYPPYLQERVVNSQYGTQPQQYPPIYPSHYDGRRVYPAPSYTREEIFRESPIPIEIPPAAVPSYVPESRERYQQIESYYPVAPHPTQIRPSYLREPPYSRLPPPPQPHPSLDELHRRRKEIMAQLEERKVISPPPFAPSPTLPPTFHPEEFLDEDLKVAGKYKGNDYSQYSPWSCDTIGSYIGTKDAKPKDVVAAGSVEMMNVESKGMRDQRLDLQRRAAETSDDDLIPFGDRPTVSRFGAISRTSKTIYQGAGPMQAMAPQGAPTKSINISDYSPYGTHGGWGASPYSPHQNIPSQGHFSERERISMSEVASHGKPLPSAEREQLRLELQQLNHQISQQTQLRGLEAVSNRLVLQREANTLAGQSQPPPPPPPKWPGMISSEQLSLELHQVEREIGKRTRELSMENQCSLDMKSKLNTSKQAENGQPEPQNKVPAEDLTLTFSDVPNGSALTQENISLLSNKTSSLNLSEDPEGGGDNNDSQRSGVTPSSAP

AUAUAUAAUAUACCCUUACAUUAUGUAUGAGGGAUUU [A20 37 nt]
binding result [1]: binds more weakly

UACAUAUAUAAUAUACCCUUACAUUAUGUAUGAGGGAUUUUUUUAAAUUAUAUUGAAAU [A20 3'UTR PAR-CLIP site]
binding result [2]: binds

ACCCUUACAUUAUGUAUGAGGGA [A20 23 nt hairpin]
binding result ([1]; lower affinity than RC3H1-N2, variant of A20 37 nt): binds more weakly

For part of these data: The comparison behind a weaker result is the experiment's own reference, which may not be listed here. Protein sequences can lack the tags named with them. For part of these data: Results from cells or extracts need not show a direct contact.
